Measured values as given in patent publication US7446117B2, “Cox-2 inhibiting pyridine derivatives” (Glaxo Group Limited, priority 2002, dated 2008).
Some results were stated once for a whole list of compounds, not compound by compound.

The chains behind the UniProt entries cited, without tags or fusion partners. Residues count along the entry.
UniProt P23219, 24-599: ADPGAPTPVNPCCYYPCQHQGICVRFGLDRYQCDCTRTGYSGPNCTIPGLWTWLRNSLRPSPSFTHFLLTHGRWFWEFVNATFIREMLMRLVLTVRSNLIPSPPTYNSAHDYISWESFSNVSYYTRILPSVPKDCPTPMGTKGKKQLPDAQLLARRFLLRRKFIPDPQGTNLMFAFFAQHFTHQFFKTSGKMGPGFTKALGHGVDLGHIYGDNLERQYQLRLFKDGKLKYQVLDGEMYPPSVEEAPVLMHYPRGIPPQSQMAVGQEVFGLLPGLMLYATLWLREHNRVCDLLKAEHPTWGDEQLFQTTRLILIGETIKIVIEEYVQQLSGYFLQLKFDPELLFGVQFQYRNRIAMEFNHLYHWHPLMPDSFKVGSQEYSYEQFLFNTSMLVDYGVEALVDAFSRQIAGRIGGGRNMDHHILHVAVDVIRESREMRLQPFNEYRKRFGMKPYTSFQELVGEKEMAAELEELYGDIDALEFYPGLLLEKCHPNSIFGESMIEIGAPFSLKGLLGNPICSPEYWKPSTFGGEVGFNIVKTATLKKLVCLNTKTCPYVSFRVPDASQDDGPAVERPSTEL

Biological target: COX-1 (Homo sapiens, UniProt P23219)
Assay: COX-1 inhibition, IC50 compared for selectivity for COX-2 over COX-1
Assay type: biochemical
Conditions: based on comparison of the respective IC50 values

selectivity for COX-2 over COX-1 [fold] | Compound
≥ 100 | Cc1cc(OCc2ccccc2)nc(-c2ccc(S(C)(=O)=O)cc2)c1 [Example 2, 2-Benzyloxy-4-methyl-6-[4-(methylsulfonyl)phenyl]pyridine]
≥ 100 | Cc1cc(NCc2ccc(Cl)cc2)nc(-c2ccc(S(C)(=O)=O)cc2)c1 [Example 4]
≥ 100 | CS(=O)(=O)c1ccc(-c2cc(C(F)(F)F)cc(NCc3ccco3)n2)cc1 [Example 6]
≥ 100 | Cc1cc(NCc2ccccc2)nc(-c2ccc(S(C)(=O)=O)cc2)c1 [Example 7]
≥ 100 | CS(=O)(=O)c1ccc(-c2cc(C(F)(F)F)cc(NCC3CCCCC3)n2)cc1 [Example 8]
≥ 100 | Cc1cc(Oc2cccnc2)nc(-c2ccc(S(C)(=O)=O)cc2)c1 [Example 11]
≥ 100 | Cc1cc(NCc2cccnc2)nc(-c2ccc(S(C)(=O)=O)cc2)c1 [Example 15]
≥ 100 | COc1ccc(Nc2cc(C(F)(F)F)cc(-c3ccc(S(C)(=O)=O)cc3)n2)cc1 [Example 16]
≥ 100 | Cc1cc(NC2CCCCC2)nc(-c2ccc(S(C)(=O)=O)cc2)c1 [Example 17]
≥ 100 | COc1ccc(CNc2cc(C)cc(-c3ccc(S(C)(=O)=O)cc3)n2)cc1 [Example 20]
≥ 100 | CCCCNc1cc(C)cc(-c2ccc(S(C)(=O)=O)cc2)n1 [Example 23]
≥ 100 | CS(=O)(=O)c1ccc(-c2cc(C(F)(F)F)cc(NC3CCCC3)n2)cc1 [Example 26]
≥ 100 | Cc1cc(NCc2ccccn2)nc(-c2ccc(S(C)(=O)=O)cc2)c1 [Example 28]
≥ 100 | CCOc1ccc(CNc2cc(C)cc(-c3ccc(S(C)(=O)=O)cc3)n2)cc1 [Example 30]
≥ 100 | Cc1cc(NCC(C)C)nc(-c2ccc(S(C)(=O)=O)cc2)c1 [Example 31]
≥ 100 | Cc1cc(Nc2ccc(F)cc2)nc(-c2ccc(S(C)(=O)=O)cc2)c1 [Example 43]
≥ 100 | Cc1cc(NCc2cccs2)nc(-c2ccc(S(C)(=O)=O)cc2)c1 [Example 44]
≥ 100 | CCc1cc(NCC2CCOCC2)nc(-c2ccc(S(C)(=O)=O)cc2)c1 [Example 46]
≥ 100 | Cc1ccc(CNc2cc(C(F)(F)F)cc(-c3ccc(S(C)(=O)=O)cc3)n2)cc1 [Example 48]
≥ 100 | CS(=O)(=O)c1ccc(-c2cc(C(F)(F)F)cc(NCc3ccccc3Cl)n2)cc1 [Example 50]

selectivity for COX-2 over COX-1 [fold] | Compound
≥ 100 | C[C@@H](Nc1cc(C(F)(F)F)cc(-c2ccc(S(C)(=O)=O)cc2)n1)c1ccccc1 [Example 53]
≥ 100 | Cc1cc(Nc2ccc(C)nc2)nc(-c2ccc(S(C)(=O)=O)cc2)c1 [Example 56]
≥ 100 | Cc1ccc(-c2ccc(S(C)(=O)=O)cc2)nc1NCc1ccccc1 [Example 57]
≥ 100 | Cc1cc(-c2ccc(S(C)(=O)=O)cc2)nc(N(C)Cc2ccccc2)c1C [Example 58]
≥ 100 | Cc1cc(-c2ccc(S(C)(=O)=O)cc2)nc(NCc2ccccc2)c1C [Example 59]
≥ 100 | Cc1cc(-c2ccc(S(C)(=O)=O)cc2)nc(NCC(C)C)c1C [Example 60]
≥ 100 | Cc1cc(-c2ccc(S(C)(=O)=O)cc2)nc(N2CCCCC2)c1C [Example 66]
≥ 100 | Cc1cc(NCc2ccccc2)nc(-c2ccc(S(C)(=O)=O)c(F)c2)c1 [Example 67]
≥ 100 | CCc1cc(NCc2ccco2)nc(-c2ccc(S(C)(=O)=O)cc2)c1 [Example 69]
≥ 100 | Cc1cc(NCC(C)C)nc(-c2ccc(S(N)(=O)=O)cc2)c1 [Example 73]
≥ 100 | CCC(CC)Nc1cc(C)cc(-c2ccc(S(C)(=O)=O)cc2)n1 [Example 74]
≥ 100 | CS(=O)(=O)c1ccc(-c2cccc(NCc3ccccc3)n2)cc1 [Example 75]
≥ 100 | Cc1cc(NCc2ccccc2)nc(-c2ccc(S(N)(=O)=O)cc2)c1 [Example 79]
≥ 100 | Cc1cc(NCc2nccn2C)nc(-c2ccc(S(C)(=O)=O)cc2)c1 [Example 80]
≥ 100 | Cc1cc(NCc2c[nH]nc2C)nc(-c2ccc(S(C)(=O)=O)cc2)c1 [Example 81]
≥ 100 | CCc1cc(NCc2ncc[nH]2)nc(-c2ccc(S(C)(=O)=O)cc2)c1 [Example 84]
≥ 100 | Cc1cc(OCc2ccnn2C)nc(-c2ccc(S(C)(=O)=O)cc2)c1 [Example 86]
≥ 100 | Cc1cc(OCc2cc(C)on2)nc(-c2ccc(S(C)(=O)=O)cc2)c1 [Example 88]
≥ 100 | CCc1cc(NC2CCOCC2)nc(-c2ccc(S(C)(=O)=O)cc2)c1 [Example 89, 4-Ethyl-6-[4-(methylsulfonyl)phenyl]-N-(tetrahydro-2H-pyran-4-yl)pyridine-2-amine]

The remaining lines, values behind:

Compound | selectivity for COX-2 over COX-1 [fold]
Cc1cc(NC2CCCC2)nc(-c2ccc(S(C)(=O)=O)cc2)c1 [Example 1, N-Cyclopentyl-4-methyl-6-[4-(methylsulfonyl)phenyl]pyridine-2-amine] | ≥ 100
Cc1cc(-c2ccc(S(C)(=O)=O)cc2)nc(N(C)Cc2ccccc2)c1 [Example 3, N-Benzyl-N-methyl-4-methyl-6-[4-(methylsulfonyl)phenyl]pyridine-2-amine] | ≥ 100
CN(Cc1ccccc1)c1cc(C(F)(F)F)cc(-c2ccc(S(C)(=O)=O)cc2)n1 [Example 5] | ≥ 100
COc1ccc(Nc2cc(C)cc(-c3ccc(S(C)(=O)=O)cc3)n2)cc1 [Example 9] | ≥ 100
Cc1cc(OCC(C)C)nc(-c2ccc(S(C)(=O)=O)cc2)c1 [Example 10] | ≥ 100
C=CCNc1cc(C(F)(F)F)cc(-c2ccc(S(C)(=O)=O)cc2)n1 [Example 12] | ≥ 100
Cc1cc(Nc2ccccc2Cl)nc(-c2ccc(S(C)(=O)=O)cc2)c1 [Example 13] | ≥ 100
Cc1cc(NCc2cc(F)cc(F)c2)nc(-c2ccc(S(C)(=O)=O)cc2)c1 [Example 14] | ≥ 100
CCCCNc1cc(C(F)(F)F)cc(-c2ccc(S(C)(=O)=O)cc2)n1 [Example 18] | ≥ 100
CC(C)CNc1cc(C(F)(F)F)cc(-c2ccc(S(C)(=O)=O)cc2)n1 [Example 19] | ≥ 100
Cc1cc(NCc2ccc(F)cc2)nc(-c2ccc(S(C)(=O)=O)cc2)c1 [Example 21] | ≥ 100
Cc1ccc(CNc2cc(C(F)(F)F)cc(-c3ccc(S(C)(=O)=O)cc3)n2)o1 [Example 22] | ≥ 100
Cc1cc(NCc2ccco2)nc(-c2ccc(S(C)(=O)=O)cc2)c1 [Example 24] | ≥ 100
Cc1ccc(CNc2cc(C)cc(-c3ccc(S(C)(=O)=O)cc3)n2)cc1 [Example 25] | ≥ 100
Cc1cc(NCc2ccncc2)nc(-c2ccc(S(C)(=O)=O)cc2)c1 [Example 27] | ≥ 100
CCc1cc(-c2ccc(S(C)(=O)=O)cc2)nc(N(C)Cc2ccccc2)c1 [Example 45] | ≥ 100

Compound | selectivity for COX-2 over COX-1 [fold]
CCc1cc(NCC(C)C)nc(-c2ccc(S(C)(=O)=O)cc2)c1 [Example 47] | ≥ 100
Cc1ccccc1CNc1cc(C(F)(F)F)cc(-c2ccc(S(C)(=O)=O)cc2)n1 [Example 49] | ≥ 100
Cc1cnc(CNc2cc(C(F)(F)F)cc(-c3ccc(S(C)(=O)=O)cc3)n2)cn1 [Example 51] | ≥ 100
C[C@H](Nc1cc(C(F)(F)F)cc(-c2ccc(S(C)(=O)=O)cc2)n1)c1ccccc1 [Example 52] | ≥ 100
CS(=O)(=O)c1ccc(-c2cc(C(F)(F)F)cc(NC3CCCCC3)n2)cc1 [Example 54, N-cyclohexyl-4-(trifluoromethyl)-6-[4-(methylsulfonyl)phenyl]pyridine-2-amine] | ≥ 100
COc1ccc(CNc2cc(C(F)(F)F)cc(-c3ccc(S(C)(=O)=O)cc3)n2)cc1 [Example 55] | ≥ 100
CN(Cc1ccccc1)c1cccc(-c2ccc(S(C)(=O)=O)cc2)n1 [Example 61] | ≥ 100
Cc1cc(-c2ccc(S(C)(=O)=O)cn2)nc(N(C)Cc2ccccc2)c1 [Example 62] | ≥ 100
Cc1cc(-c2ccc(S(C)(=O)=O)cc2)nc(N(C)Cc2cccc(C)n2)c1 [Example 68] | ≥ 100
COc1ccc(Nc2cc(C)cc(-c3ccc(S(C)(=O)=O)cn3)n2)cc1 [Example 70] | ≥ 100
CCCCNc1cc(C)cc(-c2ccc(S(N)(=O)=O)cc2)n1 [Example 72] | ≥ 100
Cc1cc(NCc2ncc[nH]2)nc(-c2ccc(S(C)(=O)=O)cc2)c1 [Example 76] | ≥ 100
Cc1cc(NCc2ccn(C)n2)nc(-c2ccc(S(C)(=O)=O)cc2)c1 [Example 82] | ≥ 100
Cc1cc(NCc2cnn(C)c2)nc(-c2ccc(S(C)(=O)=O)cc2)c1 [Example 83, N-[(1-methyl-1H-pyrazol-4-yl)methyl]-4-methyl-6-[4-(methylsulfonyl)phenyl]pyridine-2-amine] | ≥ 100
Cc1cc(OCc2cc(C)n[nH]2)nc(-c2ccc(S(C)(=O)=O)cc2)c1 [Example 85] | ≥ 100
Cc1cc(NCc2ncnn2C)nc(-c2ccc(S(C)(=O)=O)cc2)c1 [Example 87] | ≥ 100
